Laboratory results reported in PubChem BioAssay AID493014 (National Center for Advancing Translational Sciences (NCATS), 2011).
Out of some 340,000 compounds screened, about 170 (0.05%) were called active. The inconclusive results got no clear call from the source; some entries with a clear call stand among them for comparison. The call rests on the fitted dose curve; in most records, active means well fitted inhibition curve with a large enough effect in the signal ratio, with a control signal flat (not every such curve was filed as active); inconclusive means small, poorly fitted or top-dose-only effect, or effect the other way, or a change in a side signal; inactive means flat fitted curve, though single readings scatter; the % refers to the signal ratio. A potency beside an inconclusive call is a rough fit, not a confirmed value.

Assay: qHTS Assay to Find Inhibitors of Chronic Active B-Cell Receptor Signaling;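 on activity change, negative = inhibition: plate controls were basal doxycycline-induced cells for no effect and cells given 10 µM MG132 for full effect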
Settings: ABC-DLBCL IkBa-CBG/CBR reporter, luminescence ratio (green luciferase fused to IkBa over red control in TMD8 lymphoma cells), 4 h; activity change, negative = inhibition: at 46.1 µM (top of the series)
In short: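 Cell line TMD8 (human ABC DLBCL), stably expressing tet-inducible CBG68-IkBa fusion and CBR; IMDM/0.5% FBS; cpd up to 46 uM; dox induction, 4 h, 37C/5% CO2; dual luminescence; green/red ratio; MG132 control.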
Potency means the concentration at half of the fitted maximal effect.

Row | Structure (SMILES) | activity change, negative = inhibition | Potency
1 | Cc1ccc(C(=O)C[n+]2cc(-c3ccc(C)cc3)n3c2CCCCC3)cc1 | inconclusive: -0.341% | –
2 | CCC1CCCCN1CCNC(=O)C1CCN(S(=O)(=O)c2c(C)noc2C)CC1 (stereo not drawn) | – | inconclusive: 2.31 µM [rising, partial curve, poor fit]
3 | O=C(NC(=S)NNC(=O)c1ccccc1O)c1cccnc1 | – | inconclusive: 12.6 µM [falling, partial curve]
4 | COC(=O)CCC(=O)c1oc2ccccc2c1N | inconclusive: 0.416% | –
5 | COc1cccc2c(=O)c3cccc(N)c3[nH]c12 | inconclusive: 0.149% | –
6 | COc1cccc(CNC(=O)c2ccc(Cl)c(NC3=NC4CS(=O)(=O)CC4S3)c2)c1 (stereo not drawn) | inactive: -12.3% | –
7 | CCC(=O)N(CCC(Cc1ccccc1)c1ccc2c(c1)OCO2)Cc1ccccc1F (stereo not drawn) | – | inconclusive: 11.2 µM [activator, partial curve, poor fit]
8 | CCC(Sc1nc2c(cnn2-c2ccccc2)c(=O)[nH]1)C(=O)OC (stereo not drawn) | – | inconclusive: 1.84 µM [rising, partial curve, poor fit]
9 | CCN(Cc1ccccc1)C(=O)c1cccc(S(=O)(=O)N2CCN(c3ccc(F)cc3)CC2)c1 | inactive: -4.85% | –
10 | CCN(CC)C(=O)CSc1nc2sc(C)c(C)c2c(=O)[nH]1 | inconclusive: 17.3% | –
11 | CSc1nc(C)cc(OCCNS(=O)(=O)c2cc(C)ccc2C)n1 | inconclusive: -3% | –
12 | Oc1ccc(/C=N\Nc2cc(N3CCOCC3)nc(N3CCOCC3)n2)c(O)c1 | – | inconclusive: 20.6 µM [falling, single point]
13 | CCN1CCc2c(sc(NC(=S)NC(=O)c3ccc(Cl)cc3)c2C(N)=O)C1 | inconclusive: 7.32% | –
14 | CC(O)c1nc2ccc(C(=O)O)cc2[nH]1 (stereo not drawn) | inactive: -6.2% | –
15 | C[C@H](N)C(=O)OCc1ccc([N+](=O)[O-])cc1 | inconclusive: 5.98% | –
16 | CC(C)Oc1ccccc1/C=N/NC(=O)c1ccccc1Cl | – | inconclusive: 14.1 µM [falling, single point]
17 | Cc1ccc(Cl)c(OCCCCN(C)Cc2ccccc2)c1 | inactive: -9% | –
18 | Cc1ccc2nc3c(c(Nc4ccc(O)cc4)c2c1)CCC3 | – | inconclusive: 11.2 µM [falling, partial curve]
19 | CCCn1c(=N)c(S(=O)(=O)c2ccc(F)cc2)cc2c(=O)n3cccc(C)c3nc21 | inactive: -6.09% | –
20 | COc1cccc(-c2ccc(SCc3ccccn3)nn2)c1 | inactive: 0.121% | –
21 | NC(=O)c1ccc(NC(=O)CCCNC(=O)c2ccc(Cl)cc2)cc1 | inactive: -1.09% | –
22 | COCC(=O)Nc1ccc(Br)cc1C | inactive: -0.654% | –
23 | O=C(CNc1ccc(Br)cc1)NC(=O)NC1CCCCC1 | – | inconclusive: 6.51 µM [falling, partial curve]

3 entries from above, sorted by SMILES length, ascending:
Row | Structure (SMILES) | activity change, negative = inhibition | Potency
23 | O=C(CNc1ccc(Br)cc1)NC(=O)NC1CCCCC1 | – | inconclusive: 6.51 µM [falling, partial curve]
7 | CCC(=O)N(CCC(Cc1ccccc1)c1ccc2c(c1)OCO2)Cc1ccccc1F (stereo not drawn) | – | inconclusive: 11.2 µM [activator, partial curve, poor fit]
19 | CCCn1c(=N)c(S(=O)(=O)c2ccc(F)cc2)cc2c(=O)n3cccc(C)c3nc21 | inactive: -6.09% | –
